According to patent publication US11891352B2, “Aminomethyl-functionalized denatonium derivatives, their preparation and use” (Julius-Maximilians-Universitaet Wuerzburg, priority 2018, dated 2024):

Tests used:
[1] = Taste testing with electronic tongue, sensor SB2AC0 (potential)
[2] = Taste testing with electronic tongue, sensor SB2AN0 (potential)
[3] = 0.05 mM, Example 3 first measurement (FIG. 1), compound 2 acetylated on the free amino group
[4] = 0.1 mM, Example 3 first measurement (FIG. 1), compound 2 acetylated on the free amino group
[5] = 0.1 mM, Example 3 further measurement (FIG. 4), compound 2 acetylated
[6] = 0.5 mM, Example 3 first measurement (FIG. 1), compound 2 acetylated on the free amino group
[7] = 0.5 mM, Example 3 further measurement (FIG. 4), compound 2 acetylated
[8] = 1.0 mM, Example 3 first measurement (FIG. 1), compound 2 acetylated on the free amino group
[9] = 1 mM, Example 3 further measurement (FIG. 4), compound 2 acetylated
[10] = 5 mM, Example 3 further measurement (FIG. 4), compound 2 acetylated
[11] = 1 mM, Example 3 first measurement (FIG. 1), compound 2 acetylated on the free amino group
[12] = concentration printed only as "mM" (last point of range 0.1 mM to 5 mM), Example 3 further measurement (FIG. 4), compound 2 acetylated

Row | Compound | potential, sensor SB2AC0 [1, 3] | potential, sensor SB2AC0 [1, 4] | potential, sensor SB2AC0 [1, 5] | potential, sensor SB2AC0 [1, 6] | potential, sensor SB2AC0 [1, 7] | potential, sensor SB2AC0 [1, 8] | potential, sensor SB2AC0 [1, 9] | potential, sensor SB2AC0 [1, 10] | potential, sensor SB2AN0 [2, 3] | potential, sensor SB2AN0 [2, 4] | potential, sensor SB2AN0 [2, 5] | potential, sensor SB2AN0 [2, 6] | potential, sensor SB2AN0 [2, 7] | potential, sensor SB2AN0 [2, 11] | potential, sensor SB2AN0 [2, 9] | potential, sensor SB2AN0 [2, 12] | potential, sensor SB2AC0 ([1]; 0.1 mM, Example 6 (FIG. 6)) | potential, sensor SB2AC0 ([1]; 0.5 mM, Example 6 (FIG. 6)) | potential, sensor SB2AC0 ([1]; 1.0 mM, Example 6 (FIG. 6)) | further results
1 | CC[N+](CC)(CC(=O)Nc1c(C)cccc1C)Cc1ccc(CN)cc1 [compound 2] | −89 mV | −89 mV | −58 mV | −88 mV | −56 mV | −85 mV | −54 mV | −37 mV | −66 mV | −65 mV | −73 mV | −64 mV | −68 mV | −62 mV | −65 mV | −39 mV |  |  |  | 
2 | CC[N+](CC)(CC(=O)Nc1c(C)cccc1C)Cc1ccccc1 [denatonium benzoate, benzyldiethyl(2,6-xylyl-carbamoyl)methylammonium benzoate] | −88 mV | −85 mV | −56 mV | −59 mV | −45 mV | −44 mV | −36 mV | 11 mV | −66 mV | −64 mV | −71 mV | −53 mV | −58 mV | −42 mV | −45 mV | 12 mV | −107 mV | −89 mV | −73 mV | potential, sensor SB2AN0 ([2]; 0.1 mM, Example 6 (FIG. 6)): −120 mV; potential, sensor SB2AN0 ([2]; 0.5 mM, Example 6 (FIG. 6)): −94 mV; potential, sensor SB2AN0 ([2]; 1.0 mM, Example 6 (FIG. 6)): −75 mV
3 | SL10K: coupling product of compound 2 and the peptide GPQGIAGA (SEQ ID NO: 5), Example 6 (coupled to compound 2) |  |  |  |  |  |  |  |  |  |  |  |  |  |  |  |  | −113 mV | −114 mV | −124 mV | 
